Source: patent US8096419B2, “Compound” (PCI Biotech AS, priority 2001, dated 2012)

System: V79 cells
Test: Fluorescence microscopy of intracellular localization
Type: cell-based, Chinese hamster
Conditions: 1 μg/ml for 18 hours, then 1 hour sensitizer-free medium

In the case of “Tetraphenyl chlorin disulfonate [TPCS2a]”, the intracellular localization is reported as “localize in endocytic vesicles”.
